In all, about 320,000 compounds went through this assay and about 2,100 (0.66%) were called active. The shares of active, inactive and inconclusive entries below differ from those in the screen. Calls follow the shape of the dose curve; as a rule, active = well fitted inhibition curve with a large enough effect in the signal ratio, with a control signal flat (not every such curve was filed as active); inconclusive = small, poorly fitted or top-dose-only effect, or effect the other way, or a change in a side signal; inactive = flat fitted curve, though single readings scatter; the % refers to the signal ratio. Potencies beside an inconclusive call are fits to weak or partial responses and may not hold up.
Assay: qHTS Assay for Lipid Storage Modulators in Drosophila S3 Cells
Settings: BODIPY lipid droplet fluorescence, 18-24 h, cells fed with added oleic acid; lipid storage change, negative = inhibition: at 46.1 µM (top of the series) unless noted
In short: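 Drosophila S3 cells got compounds at several concentrations plus oleic acid (400 uM solution). Laser-scanning cytometry with 488 nm excitation read lipid droplets at 500-530 nm and cells at 575-640 nm. Percent activity was relative to 20 uM Triacsin C.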
% is scaled to controls: 0 for no effect and ±100 for the full control effect; potency is read from the fitted curve at half-maximal effect.

SMILES	lipid storage change, negative = inhibition	Potency
C=CCN1C(=O)c2ccc(C(=O)NCC(=O)Nc3c(C)cc(C)cc3C)cc2C1=O	inconclusive: 7.81%	
O=C(CSc1ccsc1[N+](=O)[O-])NCc1ccccc1	inconclusive: -4.36%	
C=CCOc1ccccc1CN1CCC(n2nccc2NC(=O)C2CCOC2)CC1 (stereo not given)		inconclusive: 3260 nM [falling, single point]
Cc1ccc(SCC(=O)NCC(C)C)cc1		inconclusive: 51.7 nM [falling, full curve]
CCCCOC(=O)c1ccc(NC(=O)c2c(Cl)ccc(Cl)c2OC)cc1		inconclusive: 6510 nM [activator, partial curve, poor fit]
CCOC(=O)Nc1sc2c(c1C(=O)OCC)CCC2		inconclusive: 29100 nM [activator, single point]
Cc1onc(-c2ccccc2Cl)c1C(=O)NCc1ccc(S(N)(=O)=O)cc1	inconclusive: -17.6%	
CN1CCN(c2nc3c(c(=O)n(C)c(=O)n3C)n2Cc2cccc(Br)c2)CC1		inconclusive: 580 nM [activator, single point]
Cc1c(Cl)c([N+](=O)[O-])nn1CC(=O)N1CCN(C23CC4CC(CC(C4)C2)C3)CC1	inconclusive: -150%	
c1ccc(N2CCN(Cc3ccsc3)CC2)nc1		inconclusive: 231 nM [falling, full curve, poor fit]
N#Cc1ccccc1NC(=O)CN1C(=O)NC(Cc2c[nH]c3ccccc23)C1=O (stereo not given)	inconclusive: -3.05%	
O=C(CCCC(=O)OCC1CCCO1)OCC1CCCO1 (stereo not given)	inconclusive: -6.58%	
CN(C(=O)CSc1ncnc2ccccc12)C1CCCCC1		inconclusive: 10.3 nM [falling, full curve, poor fit]
C#CCn1c(=NC(=O)c2cccs2)sc2cccc(OCC)c21		inconclusive: 1840 nM [activator, single point]
O=C(NCc1ccco1)c1cc(S(=O)(=O)N2CCOCC2)c(Cl)cc1Cl	inconclusive: 9.33%	
O=C(CCn1nnc2ccccc21)OCC(=O)c1ccc([N+](=O)[O-])cc1		active: 731 nM
COc1ccc([C@H]2CC(=O)C=C(c3ccc4ccccc4c3)C2)cc1OC	inconclusive: 22.2%	
O=C(CCc1ccc(S(=O)(=O)NCCc2ccccc2)cc1)N1CCN(Cc2ccc3c(c2)OCO3)CC1	inconclusive: 41.5%	
CCCCNC(=O)N(O)C1N(/N=C/c2ccccc2O)C(=S)SC1(C)C (stereo not given)	inconclusive: 64.1%	
Cc1cccc(NS(=O)(=O)c2ccc3[nH]c(=O)cc(C(=O)OC(C)C(=O)Nc4ccc([N+](=O)[O-])cc4)c3c2)c1 (stereo not given)	inconclusive: 8.53%	
O=C(COc1ccc(Br)cc1CNC1CCCC1)Nc1ccccc1	inconclusive: 25.1%	
COc1cc2c(cc1OC)CN(S(C)(=O)=O)CC2	inconclusive: -20.8%	
O=C(NCc1ccc2[nH]c3c(c2c1)CCCC3)c1ccc(S(=O)(=O)N2CCCCC2)cc1	inactive	
O=C(Nc1ccc(S(=O)(=O)N2CCCCCC2)cc1)c1c(F)cccc1F	inconclusive: -38.9%	
O=C(N1CCOCC1)N1CCN(c2nc(-c3ccccc3)cs2)CC1		inconclusive: 2590 nM [rising, partial curve]

SMILES	lipid storage change, negative = inhibition	Potency
CCOC(=O)CNC(=O)c1c(C)nn(C)c1Cl	inconclusive: -51.9%	
COC(=O)c1c(S(=O)(=O)NCc2ccccc2)sc(C(=O)O)c1C		inconclusive: 18400 nM [falling, single point]
CCOc1ccc(C2N(c3ccc(OC)cc3)C(=O)C3CCCN32)cc1OC (stereo not given)		inconclusive: 29100 nM [activator, partial curve, poor fit]
COc1ccc(CNCc2c(F)cccc2F)cc1OC	inconclusive: -61.9%	
CN(C)S(=O)(=O)c1cccc(NC(=O)CO/N=C(\N)c2ccccc2)c1		inconclusive: 2310 nM [rising, partial curve]
O=C(Nc1ccc(Nc2ccncc2)cc1)c1ccc(Nc2ccnc3ccc([N+](=O)[O-])cc23)cc1[N+](=O)[O-]	inconclusive: -20.1%	
COc1ccc(C2(C(=O)NCCCN3CCOCC3)CCOCC2)cc1	inconclusive: -26.7%	
CC(=O)Nc1ccc(S(=O)(=O)NCc2nc(-c3ccccc3Cl)no2)cc1	inconclusive: 78.7%	
CCCCNC(=O)CC1N=C2c3ccccc3N=C(SCC(=O)Nc3ccccc3OC)N2C1=O (stereo not given)		inconclusive: 651 nM [activator, full curve, poor fit]
COc1cc(NC(=O)CSc2ncnc3scc(-c4ccccc4)c23)c(C(=O)O)cc1OC	inconclusive: -0.119%	
CC(C)Cc1nnc(NS(C)(=O)=O)s1	inconclusive: 9.97%	
CCCCn1c(=O)[nH]c(=O)c2c1nc(-c1cc(Br)c(OCC)c(OC)c1)n2C	inactive	
O=C(O)c1ccc(N/N=C/c2c(F)cccc2Cl)cc1	inconclusive: 13.3%	
COc1ccc(CNCc2ccco2)cc1OCc1ccccc1	inconclusive: 44.3%	
CN(C(=O)c1ccc(OC2CCN(Cc3ccccn3)CC2)cc1)C1CCCCC1	inconclusive: 9.62%	
COc1ccccc1C(=O)Nc1cccc2nc(C)ccc12	inconclusive: 30.5%	
COc1ccc(S(=O)(=O)N2CCOCC2)cc1NC(=O)Cn1nnc2ccccc2c1=O	inconclusive: 47.7%	
O=C(CNC(=O)c1cccc(Br)c1)N/N=C/c1cc(Br)cc(Br)c1O		inconclusive: 23100 nM [activator, partial curve, poor fit]
Cc1nc(NC(=O)c2ccccc2)sc1-c1csc(Nc2cccc(F)c2)n1	inconclusive: -1.6%	
Cc1ccc(/C(O)=C2\C(=O)C(=O)N(C)C2c2ccc([N+](=O)[O-])cc2)cc1 (stereo not given)	inconclusive: 31.7%	
O=C(C1CCN(S(=O)(=O)c2cccc3cccnc23)CC1)N1CCn2c1nc1ccccc12	inconclusive: -19.6%	
O=[N+]([O-])c1cccc(S(=O)(=O)c2ccc(NCCO)c([N+](=O)[O-])c2)c1		inconclusive: 130 nM [cytotoxic, full curve, poor fit]
CC(=O)c1cn(-c2ccc(Cl)cc2)c(=O)n(Cc2ccc(F)cc2)c1=O	inconclusive: -30.8% [at 0.369 µM]	
N#Cc1ccc(OCC(=O)N/N=C(\CCC(=O)O)c2cccs2)cc1	inconclusive: -17.6%	
Cc1ccc(-c2nn(CC(=O)NCC3CCCO3)c(=O)c3ccccc23)cc1 (stereo not given)	inconclusive: 39.4%	

SMILES	lipid storage change, negative = inhibition	Potency
N#Cc1cc2c(=O)n3ccccc3nc2n(Cc2ccco2)c1=NC(=O)c1ccco1		inconclusive: 231 nM [falling, full curve, poor fit]
CCC(CC)c1nnc(NC(=O)CN2C(=O)NC3(CCCC3)C2=O)s1	inactive	
Cc1nc2nc(C)n(-c3ccccc3)c2s1	inconclusive: 25.6%	
CCCC(c1nnnn1C(C)(C)CC)N1CCN(C(=O)c2ccco2)CC1 (stereo not given)	inconclusive: -12.9%	
Cc1cccc(-c2noc(CN(C(=O)c3c(-c4ccccc4Cl)noc3C)C(C)C)n2)c1	inconclusive: 44.3% [activator]	
CCOc1ccc(NC(=O)CSc2nnc(CCNC(=O)c3ccc(OC)cc3)n2C)cc1	inconclusive: -45.1%	
COCCn1c(=NC(=O)c2sc3ccccc3c2Cl)sc2cc(S(N)(=O)=O)ccc21		inconclusive: 1300 nM [activator, partial curve]
O=C1c2ccccc2NC2CCCCC12 (stereo not given)	inconclusive: 0.578%	
COc1ccc2oc(C(=O)Nc3nc4ccc(S(C)(=O)=O)cc4s3)c(C)c2c1	inconclusive: -12.6%	
CCCSc1nnc2n(-c3ccccc3OC)c(=O)c3c4c(sc3n12)CCC4	inconclusive: 14.7%	
N#CC1=C(N)N(c2ccccc2)C(c2ccccc2)C1(C#N)C#N (stereo not given)		inconclusive: 14600 nM [falling, partial curve]
CCCc1cc(=O)oc2cc(OCC(=O)OC)cc(OCC(=O)OC)c12	inconclusive: 106%	
Nn1cc(-c2ccccc2)nc1SCC(=O)Nc1ccc2c(c1)OCO2	inconclusive: -23.3%	
C=CCn1c(SCc2nc3ccccc3nc2C)nnc1-c1ccoc1C	inactive	
O=C(CNCc1ccco1)Nc1ccc(N2CCCCCC2)cc1	inconclusive: 28.2%	
CCc1ccc(-c2nc(CS(=O)CC(=O)NC3CCCCCC3)c(C)o2)cc1 (stereo not given)	inconclusive: -4.88%	
CCC(Nc1ccc(OC)cc1)C(=O)N/N=C/c1ccc([N+](=O)[O-])cc1 (stereo not given)	inconclusive: 17.2%	
COc1ccc(N2CCN(C(=O)C3CCN(S(=O)(=O)c4c(C)noc4/C=C/N(C)C)CC3)CC2)cc1		inconclusive: 20600 nM [activator, single point]
COc1ccc(Cl)cc1S(=O)(=O)NC(C)C(=O)NCc1ccc2c(c1)OCO2 (stereo not given)	inconclusive: 31.5%	
CC1CN(C2CCN(S(=O)(=O)c3ccc(F)cc3)CC2)CC(C)O1 (stereo not given)	inconclusive: 17.3%	
COc1ccccc1C(=O)NCCC(=O)N1CCN(S(=O)(=O)c2ccccc2C(F)(F)F)CC1	inconclusive: -16.5%	
Oc1c(CN2CCCCC2)cc(COCc2ccccc2)c2cccnc12		inconclusive: 7310 nM [falling, partial curve]
Cc1ccc(/C=N/NS(=O)(=O)c2ccc([N+](=O)[O-])cc2)o1	inconclusive: 15.4%	
Cc1ccc2cn[nH]c2c1NC(=S)NC(=O)c1ccccc1	inconclusive: 55.1%	
CC(=O)Nc1cccc(NC(=O)CSc2nc(=O)n(CCN3CCOCC3)c3c2CCCC3)c1	inconclusive: 23.2%	

— PubChem BioAssay AID2685 (National Center for Advancing Translational Sciences (NCATS), 2010)
